Test results taken from paper doi:10.1101/2025.04.08.647572.
The exact form of at least one protein or probe is not confirmed. For part of these data: A weaker result is weaker than the reference pair of the same experiment.

What was measured:
Assay in all cases: fluorescence anisotropy
Details in all cases: 50 mM NaCl
[1] = test system: OBMg K121A (Moorella glycerini)
[2] = test system: OBMg group 3 (Moorella glycerini)
[3] = test system: OBMg N103A (Moorella glycerini)
[4] = test system: OBMg group 2 (Moorella glycerini)
[5] = test system: OBMg group 1 (Moorella glycerini)
[6] = test system: OBMg H120A (Moorella glycerini)

GTTCGCAACGAA (double strand) [12 bp FAM-dsDNA]
binding result [1]: binds
binding result [2]: binds more weakly
binding result [3]: binds
binding result [4]: binds more weakly
binding result [5]: binds more weakly
binding result [6]: binds
